Some of the results follow. Small differences around the control level are noise.
Each target was assayed with CN[C@@H]1C[C@H]2O[C@@](C)([C@@H]1OC)n1c3ccccc3c3c4c(c5c6ccccc6n2c5c31)C(=O)NC4 [staurosporine] (assay: log2 fold change of tryptic peptide abundance, ligand vs vehicle (limited proteolysis) (log2 ratio); higher = more trypsin-susceptible (destabilized)). Conditions: ligand concentration: 20 uM; sample: K562 cleared lysate; digestion: 4 min, 22 C (HT-PELSA RT4min, Orbitrap Astral).

Sequences of proteins named here, by UniProt entry; tags and fusion partners are left off. A change or cut given only in a name is not applied to a line headed by its entry.
UniProt Q96G03: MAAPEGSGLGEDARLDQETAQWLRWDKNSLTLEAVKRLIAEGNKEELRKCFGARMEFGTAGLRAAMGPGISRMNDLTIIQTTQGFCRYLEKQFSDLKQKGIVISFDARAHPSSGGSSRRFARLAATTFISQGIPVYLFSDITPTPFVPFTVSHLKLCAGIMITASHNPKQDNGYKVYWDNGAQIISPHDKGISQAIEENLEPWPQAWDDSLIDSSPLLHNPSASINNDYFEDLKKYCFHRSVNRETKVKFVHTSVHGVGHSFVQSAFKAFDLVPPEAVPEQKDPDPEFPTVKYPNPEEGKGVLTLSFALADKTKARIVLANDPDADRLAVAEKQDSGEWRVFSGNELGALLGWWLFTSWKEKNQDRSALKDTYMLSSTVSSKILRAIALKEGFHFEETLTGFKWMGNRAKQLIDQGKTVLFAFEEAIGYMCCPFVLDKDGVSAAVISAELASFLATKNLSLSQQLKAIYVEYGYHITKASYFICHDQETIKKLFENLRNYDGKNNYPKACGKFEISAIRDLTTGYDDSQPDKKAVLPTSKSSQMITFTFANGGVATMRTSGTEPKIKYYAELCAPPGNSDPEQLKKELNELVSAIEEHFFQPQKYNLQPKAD
UniProt Q969T4: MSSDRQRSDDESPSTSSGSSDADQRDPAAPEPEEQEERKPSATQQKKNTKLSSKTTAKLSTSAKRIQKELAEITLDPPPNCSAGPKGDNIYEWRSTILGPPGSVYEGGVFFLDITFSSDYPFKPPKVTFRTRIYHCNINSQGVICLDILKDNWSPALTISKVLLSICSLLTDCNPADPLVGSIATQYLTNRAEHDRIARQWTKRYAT
UniProt Q96AG4: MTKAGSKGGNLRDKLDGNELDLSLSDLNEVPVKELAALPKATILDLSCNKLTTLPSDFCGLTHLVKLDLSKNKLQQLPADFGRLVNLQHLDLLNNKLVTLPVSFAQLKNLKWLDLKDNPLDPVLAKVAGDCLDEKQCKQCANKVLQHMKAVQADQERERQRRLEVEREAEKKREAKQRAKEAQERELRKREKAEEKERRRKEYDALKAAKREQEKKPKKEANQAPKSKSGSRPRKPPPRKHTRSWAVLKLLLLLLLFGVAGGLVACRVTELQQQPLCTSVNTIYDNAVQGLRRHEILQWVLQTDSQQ
UniProt Q96E39: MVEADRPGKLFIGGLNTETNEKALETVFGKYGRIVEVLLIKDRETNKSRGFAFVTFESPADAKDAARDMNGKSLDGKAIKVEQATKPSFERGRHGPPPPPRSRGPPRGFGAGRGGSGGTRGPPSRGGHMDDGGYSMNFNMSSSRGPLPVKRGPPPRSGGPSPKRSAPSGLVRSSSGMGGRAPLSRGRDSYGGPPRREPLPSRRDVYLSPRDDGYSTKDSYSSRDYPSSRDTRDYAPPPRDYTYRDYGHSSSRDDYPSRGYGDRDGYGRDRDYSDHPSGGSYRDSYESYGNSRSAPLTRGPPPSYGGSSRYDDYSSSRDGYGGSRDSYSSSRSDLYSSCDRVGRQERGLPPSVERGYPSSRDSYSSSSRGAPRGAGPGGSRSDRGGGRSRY
UniProt Q969F9: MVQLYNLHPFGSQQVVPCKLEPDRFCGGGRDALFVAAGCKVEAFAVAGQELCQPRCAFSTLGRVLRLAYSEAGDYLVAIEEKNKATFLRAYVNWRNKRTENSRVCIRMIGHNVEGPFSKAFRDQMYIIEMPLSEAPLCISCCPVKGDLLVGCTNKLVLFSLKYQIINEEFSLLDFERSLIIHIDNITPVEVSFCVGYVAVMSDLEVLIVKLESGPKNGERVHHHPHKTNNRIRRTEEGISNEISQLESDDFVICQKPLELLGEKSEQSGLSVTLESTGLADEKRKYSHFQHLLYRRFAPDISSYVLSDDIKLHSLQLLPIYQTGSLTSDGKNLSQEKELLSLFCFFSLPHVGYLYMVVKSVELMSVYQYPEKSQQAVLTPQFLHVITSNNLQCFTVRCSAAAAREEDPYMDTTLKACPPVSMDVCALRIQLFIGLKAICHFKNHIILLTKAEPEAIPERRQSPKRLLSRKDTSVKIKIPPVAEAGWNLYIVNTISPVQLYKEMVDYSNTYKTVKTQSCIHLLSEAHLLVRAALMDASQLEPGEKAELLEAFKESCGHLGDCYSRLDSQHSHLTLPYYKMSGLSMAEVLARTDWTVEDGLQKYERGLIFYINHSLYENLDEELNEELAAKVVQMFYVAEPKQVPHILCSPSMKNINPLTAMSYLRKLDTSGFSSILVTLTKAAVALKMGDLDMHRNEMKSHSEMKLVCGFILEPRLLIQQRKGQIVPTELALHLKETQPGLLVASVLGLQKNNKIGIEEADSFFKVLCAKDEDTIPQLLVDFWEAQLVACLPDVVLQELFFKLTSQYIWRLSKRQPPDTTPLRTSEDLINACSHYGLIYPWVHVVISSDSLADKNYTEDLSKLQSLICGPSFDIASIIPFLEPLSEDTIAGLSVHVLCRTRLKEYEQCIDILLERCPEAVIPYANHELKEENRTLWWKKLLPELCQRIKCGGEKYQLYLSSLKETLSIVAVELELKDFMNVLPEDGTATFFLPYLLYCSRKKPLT
UniProt Q96CW6: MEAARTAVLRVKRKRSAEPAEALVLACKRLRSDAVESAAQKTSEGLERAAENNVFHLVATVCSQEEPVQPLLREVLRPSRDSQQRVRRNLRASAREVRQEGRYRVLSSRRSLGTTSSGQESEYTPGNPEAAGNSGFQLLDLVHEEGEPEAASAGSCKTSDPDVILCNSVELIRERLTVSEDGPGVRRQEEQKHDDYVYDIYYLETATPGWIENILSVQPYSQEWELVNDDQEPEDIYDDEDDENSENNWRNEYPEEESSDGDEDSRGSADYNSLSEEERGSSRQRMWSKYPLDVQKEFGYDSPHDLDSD
UniProt Q96C12: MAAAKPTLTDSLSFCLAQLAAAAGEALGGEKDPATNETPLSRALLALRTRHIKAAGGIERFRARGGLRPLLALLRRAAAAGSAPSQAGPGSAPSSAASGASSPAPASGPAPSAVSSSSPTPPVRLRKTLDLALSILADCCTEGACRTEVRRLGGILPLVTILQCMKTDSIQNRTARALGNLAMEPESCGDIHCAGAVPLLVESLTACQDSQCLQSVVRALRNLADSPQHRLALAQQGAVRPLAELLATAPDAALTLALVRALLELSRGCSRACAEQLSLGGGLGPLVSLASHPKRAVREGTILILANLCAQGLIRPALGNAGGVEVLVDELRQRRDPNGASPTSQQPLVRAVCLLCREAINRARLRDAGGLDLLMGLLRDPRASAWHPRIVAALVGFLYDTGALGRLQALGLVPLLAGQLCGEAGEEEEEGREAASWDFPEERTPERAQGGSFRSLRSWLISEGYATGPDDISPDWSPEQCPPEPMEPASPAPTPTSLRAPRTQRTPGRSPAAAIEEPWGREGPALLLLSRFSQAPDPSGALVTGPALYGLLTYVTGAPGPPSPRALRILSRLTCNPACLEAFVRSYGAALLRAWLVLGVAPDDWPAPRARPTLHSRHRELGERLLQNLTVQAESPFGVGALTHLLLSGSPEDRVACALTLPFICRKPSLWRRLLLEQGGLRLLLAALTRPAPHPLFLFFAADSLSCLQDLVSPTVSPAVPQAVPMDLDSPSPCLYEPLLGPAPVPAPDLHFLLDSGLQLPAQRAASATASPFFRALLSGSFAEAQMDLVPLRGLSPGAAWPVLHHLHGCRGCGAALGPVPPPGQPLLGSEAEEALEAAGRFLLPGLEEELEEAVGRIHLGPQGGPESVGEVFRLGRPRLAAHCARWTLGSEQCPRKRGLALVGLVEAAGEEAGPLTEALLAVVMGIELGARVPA
UniProt Q96F86: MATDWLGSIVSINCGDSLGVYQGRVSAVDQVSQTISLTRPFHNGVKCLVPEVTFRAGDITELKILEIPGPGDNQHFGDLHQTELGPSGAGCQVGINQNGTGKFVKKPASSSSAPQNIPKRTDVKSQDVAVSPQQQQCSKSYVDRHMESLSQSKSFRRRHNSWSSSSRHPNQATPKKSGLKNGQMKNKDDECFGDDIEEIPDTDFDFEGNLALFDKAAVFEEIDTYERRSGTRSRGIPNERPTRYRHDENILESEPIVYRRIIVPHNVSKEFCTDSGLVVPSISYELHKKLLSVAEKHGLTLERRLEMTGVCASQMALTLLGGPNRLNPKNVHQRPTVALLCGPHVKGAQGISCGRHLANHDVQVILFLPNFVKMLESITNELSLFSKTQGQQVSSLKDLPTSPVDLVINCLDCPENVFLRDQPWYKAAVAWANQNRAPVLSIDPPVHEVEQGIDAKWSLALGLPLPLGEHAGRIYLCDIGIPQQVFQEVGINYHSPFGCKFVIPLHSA
UniProt Q96AV8: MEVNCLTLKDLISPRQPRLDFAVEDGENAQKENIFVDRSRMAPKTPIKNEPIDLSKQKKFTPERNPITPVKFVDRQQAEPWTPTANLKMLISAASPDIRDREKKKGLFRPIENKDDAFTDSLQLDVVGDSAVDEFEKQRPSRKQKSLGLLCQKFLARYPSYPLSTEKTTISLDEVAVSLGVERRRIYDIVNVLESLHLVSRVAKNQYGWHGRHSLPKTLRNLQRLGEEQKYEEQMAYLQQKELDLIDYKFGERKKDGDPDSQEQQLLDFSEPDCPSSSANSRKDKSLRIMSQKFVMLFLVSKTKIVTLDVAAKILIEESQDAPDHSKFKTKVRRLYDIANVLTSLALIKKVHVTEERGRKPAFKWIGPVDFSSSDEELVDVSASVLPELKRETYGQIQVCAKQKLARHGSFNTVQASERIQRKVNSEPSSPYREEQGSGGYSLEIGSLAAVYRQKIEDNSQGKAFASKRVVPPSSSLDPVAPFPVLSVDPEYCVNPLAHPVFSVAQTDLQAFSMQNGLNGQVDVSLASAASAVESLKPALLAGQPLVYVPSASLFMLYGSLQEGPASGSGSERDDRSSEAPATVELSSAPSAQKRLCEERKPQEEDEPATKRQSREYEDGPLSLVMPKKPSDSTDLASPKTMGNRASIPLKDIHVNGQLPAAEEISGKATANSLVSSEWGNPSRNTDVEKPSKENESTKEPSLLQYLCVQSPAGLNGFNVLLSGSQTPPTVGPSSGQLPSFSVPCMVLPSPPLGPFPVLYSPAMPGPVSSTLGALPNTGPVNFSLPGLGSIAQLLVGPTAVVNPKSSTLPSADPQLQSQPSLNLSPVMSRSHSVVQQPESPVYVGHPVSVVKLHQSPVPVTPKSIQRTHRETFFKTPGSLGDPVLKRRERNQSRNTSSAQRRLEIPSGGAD
UniProt Q96D15: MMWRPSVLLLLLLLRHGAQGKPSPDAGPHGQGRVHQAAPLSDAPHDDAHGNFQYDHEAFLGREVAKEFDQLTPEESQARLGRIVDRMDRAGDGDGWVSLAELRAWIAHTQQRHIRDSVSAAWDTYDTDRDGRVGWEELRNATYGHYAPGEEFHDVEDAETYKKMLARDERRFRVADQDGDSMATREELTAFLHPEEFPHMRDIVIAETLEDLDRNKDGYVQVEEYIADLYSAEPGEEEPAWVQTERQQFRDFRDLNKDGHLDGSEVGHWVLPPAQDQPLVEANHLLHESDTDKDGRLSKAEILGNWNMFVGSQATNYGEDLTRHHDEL
UniProt Q96CX3: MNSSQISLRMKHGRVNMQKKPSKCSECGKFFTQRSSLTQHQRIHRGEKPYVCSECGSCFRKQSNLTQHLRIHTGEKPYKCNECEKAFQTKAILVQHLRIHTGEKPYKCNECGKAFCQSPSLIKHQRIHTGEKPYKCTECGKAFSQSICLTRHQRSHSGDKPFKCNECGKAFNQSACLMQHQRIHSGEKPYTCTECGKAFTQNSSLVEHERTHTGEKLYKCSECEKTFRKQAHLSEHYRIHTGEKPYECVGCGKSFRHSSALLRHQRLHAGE
UniProt Q92902: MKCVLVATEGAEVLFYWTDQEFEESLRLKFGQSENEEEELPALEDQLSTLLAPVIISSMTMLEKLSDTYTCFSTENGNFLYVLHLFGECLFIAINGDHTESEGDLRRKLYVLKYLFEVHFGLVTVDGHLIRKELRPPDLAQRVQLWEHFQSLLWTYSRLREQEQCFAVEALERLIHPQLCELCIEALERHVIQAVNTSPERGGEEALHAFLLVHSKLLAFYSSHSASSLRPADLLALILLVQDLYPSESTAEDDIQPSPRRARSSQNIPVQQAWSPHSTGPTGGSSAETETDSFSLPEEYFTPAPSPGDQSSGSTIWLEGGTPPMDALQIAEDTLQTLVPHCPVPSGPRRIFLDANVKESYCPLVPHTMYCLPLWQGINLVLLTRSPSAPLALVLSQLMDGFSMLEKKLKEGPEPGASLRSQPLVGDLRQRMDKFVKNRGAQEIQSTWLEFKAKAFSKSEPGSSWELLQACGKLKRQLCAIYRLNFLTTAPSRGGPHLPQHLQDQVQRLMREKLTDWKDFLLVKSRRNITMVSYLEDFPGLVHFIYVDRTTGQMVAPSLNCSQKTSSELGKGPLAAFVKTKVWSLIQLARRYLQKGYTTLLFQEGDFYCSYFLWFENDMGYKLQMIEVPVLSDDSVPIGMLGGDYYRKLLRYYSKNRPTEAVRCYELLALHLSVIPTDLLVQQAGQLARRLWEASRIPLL
UniProt Q96FQ7: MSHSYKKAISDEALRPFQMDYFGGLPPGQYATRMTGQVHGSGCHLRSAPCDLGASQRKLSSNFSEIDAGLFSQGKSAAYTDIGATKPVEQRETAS

| Target | log2 fold change |
| --- | --- |
| USP9X (peptide sequence: AICLDHAK, peptide start residue: 1059) (UniProt Q93008) | 0.298 |
| CHCHD1 (peptide sequence: PNKPLILANR, peptide start residue: 23) (UniProt Q96BP2) | 0.227 |
| SYAP1 (peptide sequence: FVEEQHTKK, peptide start residue: 111) (UniProt Q96A49) | 0.497 |
| RNF34 (peptide sequence: SQTSSFFTR, peptide start residue: 169) (UniProt Q969K3) | -0.0868 |
| PGM2 (peptide sequence: IVLANDPDADRLAVAEK, peptide start residue: 317) (UniProt Q96G03) | -0.315 |
| UBE2E3 (peptide sequence: KPSATQQKK, peptide start residue: 39) (UniProt Q969T4) | 0.319 |
| SIPA1 (peptide sequence: LGFEVDAEGFVTHVER, peptide start residue: 698) (UniProt Q96FS4) | -0.65 |
| UniProt Q96C28 (peptide sequence: AVELSFICGTCGKALSCHSR, peptide start residue: 171) | -0.232 |
| CHMP4C (peptide sequence: SVHENMDLNK, peptide start residue: 118) (UniProt Q96CF2) | 0.625 |
| PINX1 (peptide sequence: KSFSLEEK, peptide start residue: 109) (UniProt Q96BK5) | -0.36 |
| UniProt Q96AX9 (peptide sequence: KLRPDGSEVASAAPAPGPPR, peptide start residue: 873) | 0.396 |
| LRRC59 (peptide sequence: LQQLPADFGR, peptide start residue: 74) (UniProt Q96AG4) | 0.175 |
| RBMXL1 (peptide sequence: IVEVLLIKDRETNK, peptide start residue: 34) (UniProt Q96E39) | 0.413 |
| GLMN (peptide sequence: MIFNHGR, peptide start residue: 258) (UniProt Q92990) | 0.268 |
| BAD (peptide sequence: SAGTATQMR, peptide start residue: 134) (UniProt Q92934) | 0.382 |
| HPS3 (peptide sequence: MIGHNVEGPFSK, peptide start residue: 108) (UniProt Q969F9) | 0.284 |
| SLC7A6OS (peptide sequence: YPLDVQK, peptide start residue: 290) (UniProt Q96CW6) | -0.375 |
| ARMC5 (peptide sequence: NLADSPQHR, peptide start residue: 222) (UniProt Q96C12) | -0.0979 |
| SNRNP40 (peptide sequence: FVYVWDTTSR, peptide start residue: 308) (UniProt Q96DI7) | -0.245 |

| Target | log2 fold change |
| --- | --- |
| REPS1 (peptide sequence: LVAVAQSGFPLR, peptide start residue: 75) (UniProt Q96D71) | 0.425 |
| ISL2 (peptide sequence: QLQQQQHSDK, peptide start residue: 255) (UniProt Q96A47) | 0.223 |
| CLP1 (peptide sequence: EYFYGFR, peptide start residue: 303) (UniProt Q92989) | -0.189 |
| EDC3 (peptide sequence: AAVFEEIDTYERR, peptide start residue: 216) (UniProt Q96F86) | 0.132 |
| UniProt Q96AV8 (peptide sequence: YPSYPLSTEK, peptide start residue: 158) | 0.658 |
| RPE (peptide sequence: NVCSEAAQKR, peptide start residue: 215) (UniProt Q96AT9) | 0.299 |
| UniProt Q96GC9 (peptide sequence: EHHNGNFTDPSSVNEK, peptide start residue: 18) | -0.233 |
| RCN3 (peptide sequence: DIVIAETLEDLDRNK, peptide start residue: 202) (UniProt Q96D15) | 0.227 |
| TNPO1 (peptide sequence: FSDQFPLPLK, peptide start residue: 880) (UniProt Q92973) | -0.319 |
| UniProt Q969J3 (peptide sequence: LQEIPTFQPLLK, peptide start residue: 56) | -0.544 |
| RNF31 (peptide sequence: LLAQECAVCGWALPHNR, peptide start residue: 694) (UniProt Q96EP0) | -0.264 |
| RAD51AP1 (peptide sequence: KEEIPVQEK, peptide start residue: 57) (UniProt Q96B01) | 0.3 |
| UniProt Q96CX3 (peptide sequence: SSLTQHQR, peptide start residue: 35) | -0.202 |
| NUS1 (peptide sequence: FGPVDSTLGFLPWHIR, peptide start residue: 244) (UniProt Q96E22) | -0.11 |
| HPS1 (peptide sequence: SQPLVGDLR, peptide start residue: 421) (UniProt Q92902) | -0.209 |
| PPP1R14B (peptide sequence: VKELLVDCYKPTEAFISGLLDK, peptide start residue: 113) (UniProt Q96C90) | 0.154 |
| Sirt1 (peptide sequence: SPGEPGGAAPER, peptide start residue: 47) (UniProt Q96EB6) | -0.178 |
| LINC00526 (peptide sequence: MTGQVHGSGCHLR, peptide start residue: 34) (UniProt Q96FQ7) | -0.652 |

For convenience, part of the list above:

| Target | log2 fold change |
| --- | --- |
| UniProt Q96GC9 (peptide sequence: EHHNGNFTDPSSVNEK, peptide start residue: 18) | -0.233 |
| RCN3 (peptide sequence: DIVIAETLEDLDRNK, peptide start residue: 202) (UniProt Q96D15) | 0.227 |
| TNPO1 (peptide sequence: FSDQFPLPLK, peptide start residue: 880) (UniProt Q92973) | -0.319 |
| UniProt Q969J3 (peptide sequence: LQEIPTFQPLLK, peptide start residue: 56) | -0.544 |
| RNF31 (peptide sequence: LLAQECAVCGWALPHNR, peptide start residue: 694) (UniProt Q96EP0) | -0.264 |
| RAD51AP1 (peptide sequence: KEEIPVQEK, peptide start residue: 57) (UniProt Q96B01) | 0.3 |
| UniProt Q96CX3 (peptide sequence: SSLTQHQR, peptide start residue: 35) | -0.202 |
| NUS1 (peptide sequence: FGPVDSTLGFLPWHIR, peptide start residue: 244) (UniProt Q96E22) | -0.11 |

From the supplement of paper PMC12819154, “High-throughput peptide-centric local stability assay extends protein–ligand identification to membrane proteins, tissues and bacteria” (Nature Structural & Molecular Biology, 2025)
